The source of these data is publication PMC12000511, “Molecular basis for the assembly of the Vps5-Vps17 SNX-BAR proteins with Retromer” (Nature Communications, 2025).

The assay deals with T1, scVps5 (S. cerevisiae) (UniProt Q92331).
T1 sequence: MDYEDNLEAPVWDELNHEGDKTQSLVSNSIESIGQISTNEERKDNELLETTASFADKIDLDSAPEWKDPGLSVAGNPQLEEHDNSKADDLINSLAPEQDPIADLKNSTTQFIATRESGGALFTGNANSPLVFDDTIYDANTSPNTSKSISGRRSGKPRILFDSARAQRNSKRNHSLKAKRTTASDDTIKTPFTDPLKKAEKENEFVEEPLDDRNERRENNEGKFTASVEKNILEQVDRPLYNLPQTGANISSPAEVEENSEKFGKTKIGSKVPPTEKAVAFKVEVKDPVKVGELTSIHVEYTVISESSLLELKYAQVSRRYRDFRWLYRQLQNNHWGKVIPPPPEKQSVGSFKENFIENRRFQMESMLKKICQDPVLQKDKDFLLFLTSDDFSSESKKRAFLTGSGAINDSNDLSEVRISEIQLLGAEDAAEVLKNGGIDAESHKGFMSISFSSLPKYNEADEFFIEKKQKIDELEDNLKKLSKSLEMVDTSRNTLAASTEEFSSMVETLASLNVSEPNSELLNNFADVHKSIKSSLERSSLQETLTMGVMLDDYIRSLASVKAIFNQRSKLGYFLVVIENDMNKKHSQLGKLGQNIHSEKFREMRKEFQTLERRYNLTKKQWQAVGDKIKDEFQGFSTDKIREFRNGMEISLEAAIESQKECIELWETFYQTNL
As to the kind of experiment: co-purification (TAP tag); TAP-tagged scSNX-BAR complex extracted from yeast on IgG beads, TEV cleavage, 50 mM Tris pH 8.0, 300 mM NaCl, 1 mM MgCl2.

No constants are given. Whether binding was seen depends on the method and setting. Some entries that bind do so weakly or less than the wild type.

B1: scVps17 (protein, UniProt P32913 1-551)
chain: MTSAVPYDPYDDLDNNPFAEPQEEDSEPAATTTDGSSSMSEERVGTEQTAASVQDNGTANNIQNGLGEEGNATRSKTSNEHNENQQPSQPSERVILPERSDEKKKYTLLAKVTGLERFGSATGKKENPTIIFDCSTNLPTFRKQQYKNVKKSYEEFHQLFKYLNVAIQESFVPTLPSAYTTFGINSEEDRMKVTRNFQLWFNRLSQDPLIIRNEEVAFFIESDFNTYTPINKSKSLASGLKRKTLKQLAPPYDEITELAEFRPLVKSIYVVSQSLQEKLLRVSRNRKMMVQEENAFGQDFVNLDEHNKLYRRYGKILTAVGDIDSIIATMDMATLYDGLEWIVRDAYAVKEALTNRHFIMRNLVQAQQNSKAKQEQARRFRSRRDINPMKIDEALRQLKAAAKNEQVLTLKLQRITSNMIIERKQWISWYEEWIRSSIKEFTLRKIEYERKKLTLLERVRSDIRKADENGGLSRLGRHAVSNNNSDTSQTLKGDSWTGESNRKSQIPINKIAHTEFDDELFTEDDGYNSQDSDTTSLNARHAASLLGMSTK
B1: the binding entry is listed as “binds”.
